Laboratory results as given in article PMC12462475.
No constants are given. Whether binding was seen depends on the method and setting. Binding calls can cover weak binding; strength is not graded here. Tags and fused reporters may be left off the sequences shown.

Molecular target: Synechocystis sp. PCC 6803 CurT, bacterial two-hybrid fusion (Synechocystis sp. PCC 6803) (UniProt Q55176)
Assay: two-hybrid; split-adenylate-cyclase bacterial two-hybrid (BACTH kit) in E. coli BTH101; bait in pUT18C, prey in pKT25; blue colour on LB agar with ampicillin, kanamycin, 0.1 mM IPTG and X-Gal, 1 day past transformation, 37 °C in the dark; n = 4

| binding | Molecule |
| --- | --- |
| binds | Synechocystis sp. PCC 6803 ZipN, bacterial two-hybrid fusion (from UniProt Q55559) |
| binds | Synechocystis sp. PCC 6803 FtsZ, bacterial two-hybrid fusion (protein, UniProt P73456 1-430) MTLNNDLPLNNIGFTGSGLNDGTEGLDDLFSSSIVDNEPLEALVETPTFASPSPNLKRDQIVPSNIAKIKVIGVGGGGCNAVNRMIASGVTGIDFWAINTDSQALTNTNAPDCIQIGQKLTRGLGAGGNPAIGQKAAEESRDEIARSLEGTDLVFITAGMGGGTGTGAAPIVAEVAKEMGCLTVGIVTRPFTFEGRRRAKQAEEGINALQSRVDTLIVIPNNQLLSVIPAETPLQEAFRVADDILRQGVQGISDIIIIPGLVNVDFADVRAVMADAGSALMGIGVGSGKSRAKEAATAAISSPLLESSIQGAKGVVFNVTGGTDLTLHEVNVAAEIIYEVVDADANIIFGAVIDDRLQGEMRITVIATGFNGEKEKPQAKTSSKPVLSGPPAGVETVPSTTTPEDPLGEIPMAPELDIPDFLQKRRFPRR |
